Measurements reported in PubChem BioAssay AID1259254 (NCATS, 2017)

Screen: 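Gene knock-downs that lead to re-replication, shown by excess G2 DNA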 (primary screen)
Cell system: human HCT116 colorectal cancer cells
Knock-down reagent: single siRNA against human genes
Duration: 3 days
Detection: 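Imaged Hoechst DNA stain sorts each cell into a cycle phase by DNA amount; per plate, G2 fraction set to 0% for non-targeting and 100% for GMNN siRNA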
Scale: G2 robust z-score: higher = more G2 cells, more excess DNA replication
Active means: 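Active siRNAs have a G2 robust z of 5 or more median absolute deviations over the median, which in these data means about 38% or higher of GMNN control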
Shown is one part, drawn at random, of about 59,000 reagents tested. Over the whole deposit, about 1,550 (2.6%) were called active. 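G2 share is only a proxy for re-replication; each gene was hit by three separate siRNAs, and active genes were retested.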 The numbers tell different reagents against one gene apart. Further read-outs or replicates are left out here. Not given: the amount of reagent.

gene | siRNA no. | G2 robust z-score | call
PPP1R2 | 1 | 0.17 | inactive
PPP1R2 | 2 | -0.374 | inactive
PPP1R2 | 3 | -0.268 | inactive
PPP4R3B | 1 | -0.00558 | inactive
PPP4R3B | 2 | 0.642 | inactive
PPP4R3B | 3 | -0.249 | inactive
ASB16 | 1 | -0.346 | inactive
ASB16 | 2 | 0.472 | inactive
ASB16 | 3 | 0.968 | inactive
SLIT1 | 1 | -0.585 | inactive
SLIT1 | 2 | -0.785 | inactive
SLIT1 | 3 | 1.73 | inactive
FRMD5 | 1 | -0.922 | inactive
FRMD5 | 2 | -0.773 | inactive
FRMD5 | 3 | 0.38 | inactive
ITPRID1 | 1 | -0.889 | inactive
ITPRID1 | 2 | 1.17 | inactive
ITPRID1 | 3 | -0.821 | inactive
LINC02510 | 1 | 0.0361 | inactive
LINC02510 | 2 | -0.479 | inactive
LINC02510 | 3 | -0.485 | inactive
KANK3 | 1 | 1.83 | inactive
KANK3 | 2 | -0.52 | inactive
KANK3 | 3 | 0.0814 | inactive
IL17REL | 1 | -0.623 | inactive
IL17REL | 2 | 1.11 | inactive
IL17REL | 3 | -0.881 | inactive
ZNF41 | 1 | -0.211 | inactive
ZNF41 | 2 | 0.142 | inactive
ZNF41 | 3 | -0.471 | inactive
MPZL2 | 1 | 3.58 | inactive
MPZL2 | 2 | -0.851 | inactive
MPZL2 | 3 | 0.733 | inactive
PPFIA1 | 1 | 0.631 | inactive
PPFIA1 | 2 | -0.0418 | inactive
PPFIA1 | 3 | -1.01 | inactive
LINC02743 | 1 | 0.0529 | inactive
LINC02743 | 2 | 0.0648 | inactive
LINC02743 | 3 | -0.623 | inactive
RPL18AP4 | 1 | 0.753 | inactive
RPL18AP4 | 2 | -0.211 | inactive
RPL18AP4 | 3 | 0.0219 | inactive
SPANXN3 | 1 | -0.295 | inactive
SPANXN3 | 2 | 1.56 | inactive
SPANXN3 | 3 | -0.579 | inactive
TCP11 | 1 | -1.29 | inactive
TCP11 | 2 | 0.963 | inactive
TCP11 | 3 | -0.174 | inactive
STXBP5 | 1 | -0.76 | inactive
STXBP5 | 2 | -0.471 | inactive
STXBP5 | 3 | 0.0935 | inactive
LMTK1 | 1 | -0.995 | inactive
LMTK1 | 2 | -0.652 | inactive
LMTK1 | 3 | 1.43 | inactive
PCDHA4 | 1 | 1 | inactive
PCDHA4 | 2 | -0.00571 | inactive
PCDHA4 | 3 | -0.888 | inactive
ZNF385D | 1 | 0.155 | inactive
ZNF385D | 2 | -1.39 | inactive
ZNF385D | 3 | 1.21 | inactive
LOC728417 | 1 | 1.13 | inactive
LOC728417 | 2 | -0.957 | inactive
LOC728417 | 3 | 0.397 | inactive
TAOK1 | 1 | -0.844 | inactive
TAOK1 | 2 | -0.9 | inactive
TAOK1 | 3 | -0.978 | inactive
ZNF426 | 1 | -0.75 | inactive
ZNF426 | 2 | 2.3 | inactive
ZNF426 | 3 | 0.0353 | inactive
HMGN3 | 1 | -0.5 | inactive
HMGN3 | 2 | 0.757 | inactive
HMGN3 | 3 | 0.302 | inactive
PTTG2 | 1 | -0.196 | inactive
PTTG2 | 2 | 0.609 | inactive
PTTG2 | 3 | -0.0514 | inactive
SHB | 1 | -0.446 | inactive
SHB | 2 | -0.0695 | inactive
SHB | 3 | -0.326 | inactive
MORN5 | 1 | 0.908 | inactive
MORN5 | 2 | -0.208 | inactive
MORN5 | 3 | -0.518 | inactive
EFCAB9 | 1 | -0.422 | inactive
EFCAB9 | 2 | -0.692 | inactive
EFCAB9 | 3 | -1.25 | inactive
TAF4 | 1 | 1.55 | inactive
TAF4 | 2 | 0.916 | inactive
TAF4 | 3 | 1.15 | inactive

A run of entries taken from the entries so far, for reference:
gene | siRNA no. | G2 robust z-score | call
ZNF426 | 3 | 0.0353 | inactive
HMGN3 | 1 | -0.5 | inactive
HMGN3 | 2 | 0.757 | inactive
HMGN3 | 3 | 0.302 | inactive
PTTG2 | 1 | -0.196 | inactive
PTTG2 | 2 | 0.609 | inactive
PTTG2 | 3 | -0.0514 | inactive
SHB | 1 | -0.446 | inactive
